Data: patent US6967212B2, “Substituted azole acid derivatives useful as antidiabetic and antiobesity agents and method” (Bristol-Myers Squibb Company, priority 2001, dated 2005)
For at least one compound, name, drawing or mass did not settle the structure.

Tested on: Gene expression in WAT
Assay: Gene expression profiling of white adipose tissue of treated db/db mice
Assay type: in vivo
Settings: obese diabetic db/db mice
Text: Examples of such genes include adipophilin and keratinocyte fatty acid binding protein, the gene products of these genes are involved in intracellular fatty acid trafficking).
Adipose (fat) tissue is a major place of synthesis of PAI-1, a risk factor for thrombosis, angiotensinogen precursor, a risk factor for hypertension and renin, a risk factor for hypertension (see Ahima and Flier, TEM, 11: 327-332, 2000).

SMILES: CN(CCOc1ccc(CC2SC(=O)NC2=O)cc1)c1ccccn1 (stereo not shown) [rosiglitazone, reference compound]
- Fatty acid transport protein gene expression in WAT: 2.5
